According to publication doi:10.1101/2022.07.11.499655:
No constants are given. Whether binding was seen depends on the method and setting. Binding seen in cells or lysates may run through a third protein. Some binding calls cover weakened binding; strength is not graded here.

Amino acid sequences for entries named in this document (tags omitted).
UniProt O15379: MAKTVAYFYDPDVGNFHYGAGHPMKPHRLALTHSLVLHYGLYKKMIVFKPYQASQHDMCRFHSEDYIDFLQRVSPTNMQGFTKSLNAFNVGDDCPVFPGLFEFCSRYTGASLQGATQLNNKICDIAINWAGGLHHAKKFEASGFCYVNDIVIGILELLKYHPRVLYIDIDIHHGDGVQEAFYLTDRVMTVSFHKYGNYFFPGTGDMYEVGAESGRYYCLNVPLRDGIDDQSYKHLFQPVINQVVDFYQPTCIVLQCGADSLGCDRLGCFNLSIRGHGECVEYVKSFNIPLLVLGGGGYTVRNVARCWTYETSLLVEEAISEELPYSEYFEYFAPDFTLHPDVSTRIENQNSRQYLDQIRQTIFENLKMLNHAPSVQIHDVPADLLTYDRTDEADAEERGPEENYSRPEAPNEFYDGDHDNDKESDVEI

Target: T1, JunB (human (endogenous in THP-1)) (UniProt P17275)
T1 sequence: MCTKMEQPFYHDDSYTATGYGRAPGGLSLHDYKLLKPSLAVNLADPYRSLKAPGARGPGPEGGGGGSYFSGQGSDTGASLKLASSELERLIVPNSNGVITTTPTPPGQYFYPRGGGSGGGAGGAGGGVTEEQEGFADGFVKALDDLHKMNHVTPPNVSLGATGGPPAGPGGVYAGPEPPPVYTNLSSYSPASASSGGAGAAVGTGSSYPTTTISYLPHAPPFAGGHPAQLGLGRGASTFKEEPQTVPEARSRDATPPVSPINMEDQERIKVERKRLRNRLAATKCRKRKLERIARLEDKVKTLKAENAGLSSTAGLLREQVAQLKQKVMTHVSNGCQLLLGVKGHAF
Assay: co-IP

Question: For “HDAC3 (from UniProt O15379 1-428) (enzyme)”, which binding is on record?
Answer: The binding was “binds”.
